Assay results: PubChem BioAssay AID1347076 (National Center for Advancing Translational Sciences (NCATS), 2019)
Out of some 400,000 compounds screened, about 13,000 (3.2%) were called active. The shares of active, inactive and inconclusive entries below differ from those in the screen. Calls come from the whole dose curve; as a rule, active = well fitted cell-killing curve with a large enough effect; inconclusive = small, poorly fitted or top-dose-only effect, or effect the other way; inactive = flat fitted curve, though single readings scatter. Potencies beside an inconclusive call are fits to weak or partial responses and may not hold up.

Experiment: qHTS assay for MDR1-selective chemotherapeutics: Primary screen using the drug-selected MDR subline cells KB-V1; note: nearly all actives have a fitted effect of over 60% in size
Details: KB-V1 MDR cells viability, CellTiter-Glo, 72 h; series mostly up to 46.1 µM
How it was run: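 Readout: CellTiter-Glo luminescence, 10 min after addition. Cells: KB-V1 MDR subline, 72 h at 37 degrees C with compound. Analysis: corrected, normalized data fitted to concentration-effect curves.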
Potency is the fitted concentration of half-maximal effect.

SMILES	Potency
FC(F)(F)c1ccc(Oc2ccccc2Cl)nc1	inconclusive: 16.4 µM [rising, single point]
COC(=O)[C@@H]1C[C@@]2(O)[C@H](O)[C@H](O)[C@H](O)C[C@H]2N1Cc1ccc(C(C)(C)C)cc1	inconclusive: 29.1 µM [rising, single point]
CCOC(=O)N1CCN(S(=O)(=O)c2ccc(C(=O)Nc3nc4c(s3)CC(C)CC4)cc2)CC1 (configuration not stated)	inconclusive: 2.06 µM [cytotoxic, full curve, poor fit]
O=C(OCc1ccccc1)N1CCOCCN(C(=O)OCc2ccccc2)CCOCC1	inconclusive: 5.17 µM [cytotoxic, partial curve]
Cc1cc(C)nc(SCC(=O)N/N=C/c2cc(C)n(-c3ccccc3C)c2C)n1	inconclusive: 23.1 µM [cytotoxic, single point]
Cc1ccc(NS(=O)(=O)c2ccc(-c3cnc(C4CC4)o3)cc2)c(C)c1	active: 2.59 µM
Cc1cc(C)n(Cc2cccc(F)c2)c(=O)c1C#N	inconclusive: 20.6 µM [cytotoxic, single point]
Cc1nnc(SCC(=O)Nc2c(Cl)cccc2Cl)[nH]c1=O	inconclusive: 29.1 µM [rising, single point]
COc1ccc(S(=O)(=O)Nc2ccccc2OC)cc1NC(=O)CC1CC2CCC1C2 (configuration not stated)	active: 20.6 µM
Cc1ccc(SCCN2CCN(C)CC2)cc1	inactive
COc1ccc(-c2cc(C(F)(F)F)c3c(N)c(C(=O)NCCSC)sc3n2)cc1	inactive
CCOc1ccc(CCNC(=O)CCc2c(C)nc3c(c(C)nn3-c3ccc(C)c(C)c3)c2C)cc1	inconclusive: 29.1 µM [rising, single point]
O=C(COc1cccc(NC(=O)c2cccs2)c1)c1ccc(F)cc1	active: 7.31 µM
CC(C)CN(CC(C)C)C(=O)COc1ccccc1C(N)=O	inactive
O=C1OC(c2ccccc2)(c2cc(Br)ccc2O)c2ccccc21 (configuration not stated)	inconclusive: 23.1 µM [cytotoxic, single point]
NC(=O)CC(NC(=O)c1ccc(Br)cc1)c1ccc(NCCc2ccc(F)cc2)c([N+](=O)[O-])c1 (configuration not stated)	inconclusive: 18.4 µM [rising, single point]
CCCC(=O)c1cc(F)c(N2CCN(C(=O)OCC)CC2)cc1C	inconclusive: 29.1 µM [cytotoxic, single point]
C/C(Cn1nnc([N+](=O)[O-])n1)=N\NC(=O)c1ccc(O)cc1O	inactive
Cc1cccc(C2=NN(c3ccccc3)[C@@H](C(=O)N3CCOC3=O)[C@@H]2c2ccc(F)cc2)c1	inactive
CC(=O)c1cccc(OCC(O)CNCCc2ccc(Cl)cc2)c1 (configuration not stated)	inactive
N/C(=N\S(=O)(=O)c1cccs1)c1ccccc1Cl	inactive
Clc1ccc(-c2csc(Nc3cccnc3)n2)cc1	inconclusive: 4.11 µM [rising, partial curve, poor fit]
COc1ccc2[nH]c3c(N4CCN(Cc5ccc6c(c5)OCO6)CC4)ncnc3c2c1	inconclusive: 29.1 µM [cytotoxic, single point]

Some of the entries so far, bar-delimited.
SMILES | Potency
CCOC(=O)N1CCN(S(=O)(=O)c2ccc(C(=O)Nc3nc4c(s3)CC(C)CC4)cc2)CC1 (configuration not stated) | inconclusive: 2.06 µM [cytotoxic, full curve, poor fit]
O=C(OCc1ccccc1)N1CCOCCN(C(=O)OCc2ccccc2)CCOCC1 | inconclusive: 5.17 µM [cytotoxic, partial curve]

Going on with the list:

SMILES	Potency
CC1=C(C(=O)N2CCOCC2)CC(CC(=O)NC(c2ccccc2)c2ccccc2)C(=O)N1CCC1=CCCCC1 (configuration not stated)	active: 10.3 µM
Cc1cccc2c1-c1sc(C(=O)N3CCN(c4ccccc4)CC3)cc1CO2	inactive
O=C(CN1CCN(c2ccccc2)CC1)NC(=O)NCc1ccco1	inconclusive: 14.6 µM [cytotoxic, partial curve]
O=C(Nc1ccccc1N1CCOCC1)C1=NN(c2ccccc2)C(=O)CC1	inconclusive: 2.31 µM [rising, partial curve, poor fit]
Cc1ccc(NC(=S)NNC(=O)Nc2ccccc2)cc1	inactive
CC[n+]1ccc(/C=C/c2ccc(N(C)C)cc2)c2ccccc21	inactive
O=C(CSc1n[nH]c(-c2ccccn2)n1)Nc1ccc(F)cc1	inconclusive: 9.2 µM [cytotoxic, partial curve, poor fit]
Cc1cc(Cl)cc(C)c1OCCn1ccnc1	inconclusive: 23.1 µM [cytotoxic, single point]
O=C(Nc1ccc([N+](=O)[O-])cc1)/C(=C/c1cccc([N+](=O)[O-])c1)NC(=O)C1CCCCC1	inconclusive: 13 µM [cytotoxic, partial curve]
COc1ccc(S(=O)(=O)NCCc2ccc(F)cc2)cc1	inactive
NS(=O)(=O)c1ccc(NC(=O)COC(=O)COc2ccccc2)cc1	inconclusive: 29.1 µM [rising, single point]
COc1ccccc1NS(=O)(=O)c1cc(-c2cc(C)no2)ccc1OC	inactive
COc1cc(/C=C2/C(=O)NN(c3cccc(F)c3)C2=O)ccc1OC(=O)c1ccco1	inconclusive: 29.1 µM [cytotoxic, single point]
COc1cccc(NC(=O)c2ccc(NC(C)=O)cc2)c1	inconclusive: 29.1 µM [rising, single point]
COc1cc(-c2nc(-c3ccc4c(c3)-c3ccccc3S4(=O)=O)c(-c3ccccc3)[nH]2)cc(OC)c1O	inconclusive: 29.1 µM [cytotoxic, single point]
CC(C)(C)n1cnc2cc(NCc3cccs3)ccc21	inconclusive: 29.1 µM [cytotoxic, single point]
COc1cccc(-c2ccc(NC(=O)C3CCCN(Cc4cnn(C(C)C)c4)C3)cc2)c1 (configuration not stated)	inactive
CSCCC(C(=O)NC1CCCC1)n1c(C2CC2)nc2ccccc21 (configuration not stated)	inconclusive: 7.31 µM [cytotoxic, partial curve]
COc1ccc(N(C(=O)CCl)C(C(=O)NCCc2ccccc2)c2cccs2)cc1Cl (configuration not stated)	active: 13 µM
CCOC(=O)[C@]12CCCC=C1N(CCC1=CCCCC1)C(=O)[C@H](CC(=O)NCCC(C)C)C2	inconclusive: 5.17 µM [cytotoxic, partial curve, poor fit]
COc1cc(C(=O)N/N=C/c2ccccn2)cc(OC)c1OC	inconclusive: 16.4 µM [cytotoxic, partial curve, poor fit]
CCC1CCCCN1S(=O)(=O)c1ccc(NC(=O)c2cc(=O)c3c(C)cc(C)cc3o2)cc1 (configuration not stated)	inconclusive: 23.1 µM [rising, single point]
CCN1CCN(C(c2cccs2)C(C)NC(=O)c2c(F)cccc2F)CC1 (configuration not stated)	inconclusive: 13 µM [cytotoxic, partial curve, poor fit]

SMILES	Potency
COc1ccc(NC(=O)N(C)[C@H]2C[C@H]3c4[nH]c5ccc(-c6cccc(C)c6)cc5c4CCN3C[C@H]2[C@H](C)O)cc1	inconclusive: 29.1 µM [cytotoxic, partial curve, poor fit]
Cn1ccc(-c2ccccc2)c(C#N)c1=O	inconclusive: 20.6 µM [cytotoxic, single point]
CCCn1c(C)cc(C(=O)COc2ccc(-c3nnco3)cc2)c1C	inconclusive: 11.6 µM [cytotoxic, partial curve]
CC(C)(C)C(=O)Nc1ccc(C(=O)N/N=C/c2ccccc2OC(=O)c2ccc(Cl)cc2Cl)cc1	inconclusive: 6.51 µM [cytotoxic, full curve]
COc1ccc(CN2C(=O)C(CC(=O)NC3CCCC3)CC(C(=O)N(C)C)=C2C)cc1 (configuration not stated)	inactive
O=C(CN1C(=O)C2C3C=CC(C3)C2C1=O)N1CC=C(c2ccccc2)CC1 (configuration not stated)	inconclusive: 20.6 µM [cytotoxic, single point]
O=C(Nc1nc(-c2ccccc2)cs1)c1ccc2c(=O)n3c(nc2c1)CCCCC3	inconclusive: 2.31 µM [cytotoxic, full curve, poor fit]
COC(=O)c1cc2oc3ccccc3c2n1Cc1nc(-c2ccccc2Cl)oc1C	inconclusive: 3.26 µM [rising, full curve]
Nc1[nH]c(C(=O)c2ccccc2)c(-c2ccc(Br)cc2)c1C(=O)NC1CCCCC1	inconclusive: 16.4 µM [cytotoxic, partial curve, poor fit]
C[C@@H](c1ccccc1)N1C[C@H]2CCCN2c2cc(Br)ccc2S1(=O)=O	inconclusive: 29.1 µM [cytotoxic, single point]
CCC(CC)COC(=O)C1=C(C)NC(=O)NC1c1cccc([N+](=O)[O-])c1 (configuration not stated)	inconclusive: 14.6 µM [cytotoxic, partial curve]
CCOC(=O)c1cnc(SCC(=O)c2ccc3c(c2)OCCO3)nc1N	inactive
CCCCCC(=O)N1CCN(S(=O)(=O)c2ccc3c(c2)OCCCO3)CC1	inconclusive: 29.1 µM [cytotoxic, single point]
COc1ccc(S(=O)(=O)NCC2CCCN(C(=O)CC3CCCC3)C2)cc1 (configuration not stated)	inconclusive: 14.6 µM [cytotoxic, partial curve]
O=C(c1cc(Cl)cc(Cl)c1)N1CCN(c2cc(C(F)(F)F)nc3ccccc23)CC1	inactive
CCCOc1ccc2c(C)c(CC(=O)OC)c(=O)oc2c1	inconclusive: 18.4 µM [cytotoxic, single point]
CCOC(=O)CC(=O)CSc1nc(-c2ccccc2)cc(-c2ccccc2)c1C#N	inconclusive: 29.1 µM [cytotoxic, single point]
CC1(C)CC(=O)c2cc(-c3nc(-c4ccccc4)cs3)c(=O)[nH]c2C1	inactive
Cc1ccc(NC(=O)C2CCN(S(=O)(=O)c3c(C)noc3C)CC2)cc1	inactive
COC(=O)c1sc(C(F)(F)F)c(-c2ccccc2)c1S(=O)(=O)N1CCCC1	inconclusive: 16.4 µM [cytotoxic, single point]
Cc1ccc(-n2ncc3c(SCc4ccccn4)ncnc32)c(C)c1	active: 8.2 µM

Retrieved by structure from the list above:
SMILES	Potency
Cc1cccc(C2=NN(c3ccccc3)[C@@H](C(=O)N3CCOC3=O)[C@@H]2c2ccc(F)cc2)c1	inactive
COC(=O)[C@@H]1C[C@@]2(O)[C@H](O)[C@H](O)[C@H](O)C[C@H]2N1Cc1ccc(C(C)(C)C)cc1	inconclusive: 29.1 µM [rising, single point]
O=C(Nc1nc(-c2ccccc2)cs1)c1ccc2c(=O)n3c(nc2c1)CCCCC3	inconclusive: 2.31 µM [cytotoxic, full curve, poor fit]
